Data as given in PubChem BioAssay AID1259254 (NCATS, 2017)
Shown is one part, drawn at random, of about 59,000 deposited reagents. About 1,550 of all reagents (2.6%) were called active. 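G2 share is only a proxy for re-replication; each gene was hit by three separate siRNAs, and active genes were retested.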 The numbers tell different reagents against one gene apart. Not all columns of the deposit are shown. Not given: the amount of reagent.

Purpose: 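Finding genes that stop cells copying their DNA twice in one cycle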 (primary screen)
Cell system: human HCT116 colorectal cancer cells
Reagent: single siRNA against human genes
Time to read-out: 3 days
Read-out: 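Imaged Hoechst DNA stain sorts each cell into a cycle phase by DNA amount; per plate, G2 fraction set to 0% for non-targeting and 100% for GMNN siRNA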
Scale: G2 robust z-score: higher = more G2 cells, more excess DNA replication
Hit rule: 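Active siRNAs have a G2 robust z of 5 or more median absolute deviations over the median, which in these data means about 38% or higher of GMNN control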

G2 robust z-score, by gene knocked down and reagent
MAB21L2: #1 12.4 active; #2 -0.773 inactive; #3 -0.339 inactive
NPVF: #1 2.43 inactive; #2 -0.511 inactive; #3 -0.268 inactive
CCR4: #1 -0.769 inactive; #2 -0.386 inactive; #3 0.981 inactive
GPR83: #1 -1.77 inactive; #2 1.15 inactive; #3 5.9 active
PCDHGA7: #1 -0.121 inactive; #2 -0.719 inactive; #3 0.529 inactive
DNAH14: #1 -0.523 inactive; #2 -1 inactive; #3 -0.542 inactive; #4 -1.18 inactive; #5 -0.779 inactive; #6 1.53 inactive
SPATA46: #1 0.784 inactive; #2 -0.761 inactive; #3 -0.404 inactive
TRMT13: #1 0.605 inactive; #2 -0.537 inactive; #3 -0.977 inactive
DHX57: #1 -0.704 inactive; #2 0.0635 inactive; #3 -0.971 inactive
SCGB1A1: #1 0.67 inactive; #2 -0.342 inactive; #3 -0.514 inactive
FLRT3: #1 -1.04 inactive; #2 -1.54 inactive; #3 0.321 inactive
CACNA1D: #1 -0.327 inactive; #2 0.0368 inactive; #3 -0.0669 inactive
TNP2: #1 -0.765 inactive; #2 3.66 inactive; #3 2.09 inactive
LOC728868 (retired record): #1 0.101 inactive; #2 2.27 inactive; #3 -0.593 inactive
LOC727978 (retired record): #1 -0.141 inactive; #2 0.398 inactive; #3 0.83 inactive
BAIAP2: #1 1.07 inactive; #2 -0.446 inactive; #3 -0.714 inactive
TEAD4: #1 1.19 inactive; #2 -1.04 inactive; #3 0.893 inactive
SGK2: #1 2.05 inactive; #2 -0.682 inactive; #3 -0.713 inactive
LOC729562 (retired record): #1 0.0173 inactive; #2 1.9 inactive; #3 -0.781 inactive
PCGF6: #1 -0.0343 inactive; #2 -0.186 inactive; #3 2.63 inactive
ATP1A2: #1 1.21 inactive; #2 -0.152 inactive; #3 0.864 inactive
ARCN1: #1 1.02 inactive; #2 1.56 inactive; #3 1.12 inactive
LAPTM4BP1: #1 -0.211 inactive; #2 0.157 inactive; #3 -0.518 inactive
RIMKLB: #1 3.59 inactive; #2 -0.34 inactive; #3 4.85 inactive
CDHR5: #1 0.715 inactive; #2 0.694 inactive; #3 -0.599 inactive
IMMP2L: #1 0.627 inactive; #2 0.925 inactive; #3 3.39 inactive
GEMIN6: #1 0.234 inactive; #2 2.39 inactive; #3 -0.272 inactive
ATP5PD: #1 1.42 inactive; #2 1.7 inactive; #3 -0.758 inactive

Reagents listed above called active, once more:
G2 robust z-score, by gene knocked down and reagent
MAB21L2: #1 12.4 active
GPR83: #3 5.9 active
